These are yes or no findings as the source states them, for the method shown. Binding seen in cells or lysates may run through a third protein. Some binding calls cover weakened binding; strength is not graded here. Sequences can lack the tags named with a protein.
T1: HIRA-3xHA (pHIRA::HIRA-3xHA complementing line) (Arabidopsis thaliana) (UniProt Q9LXN4)
T1 sequence: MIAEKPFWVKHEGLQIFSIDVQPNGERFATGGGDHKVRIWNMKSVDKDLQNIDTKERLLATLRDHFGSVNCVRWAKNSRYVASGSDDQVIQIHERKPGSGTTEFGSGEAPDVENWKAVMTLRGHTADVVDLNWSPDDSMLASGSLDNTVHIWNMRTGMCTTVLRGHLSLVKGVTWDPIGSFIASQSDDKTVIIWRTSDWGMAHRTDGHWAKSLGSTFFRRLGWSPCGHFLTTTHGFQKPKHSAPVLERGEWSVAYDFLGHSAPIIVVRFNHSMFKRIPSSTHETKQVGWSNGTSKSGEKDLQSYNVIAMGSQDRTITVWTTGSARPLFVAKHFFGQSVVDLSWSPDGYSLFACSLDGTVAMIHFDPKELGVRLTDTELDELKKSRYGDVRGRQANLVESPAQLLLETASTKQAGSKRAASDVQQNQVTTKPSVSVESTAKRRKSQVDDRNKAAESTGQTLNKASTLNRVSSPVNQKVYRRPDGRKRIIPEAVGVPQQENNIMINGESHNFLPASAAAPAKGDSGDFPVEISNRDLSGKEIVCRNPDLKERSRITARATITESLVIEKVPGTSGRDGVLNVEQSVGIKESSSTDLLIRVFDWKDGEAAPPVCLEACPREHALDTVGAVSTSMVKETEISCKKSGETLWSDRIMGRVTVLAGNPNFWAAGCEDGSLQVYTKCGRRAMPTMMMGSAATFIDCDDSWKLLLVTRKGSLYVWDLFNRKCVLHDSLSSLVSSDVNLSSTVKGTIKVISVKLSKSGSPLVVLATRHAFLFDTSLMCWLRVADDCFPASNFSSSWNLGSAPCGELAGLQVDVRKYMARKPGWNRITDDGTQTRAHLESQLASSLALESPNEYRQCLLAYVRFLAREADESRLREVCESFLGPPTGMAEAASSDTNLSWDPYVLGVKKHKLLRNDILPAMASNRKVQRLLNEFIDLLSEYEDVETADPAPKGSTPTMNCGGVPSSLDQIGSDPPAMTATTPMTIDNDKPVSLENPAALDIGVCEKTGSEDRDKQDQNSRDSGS

B1: ASF1A-9xMyc (complementing line) (protein, UniProt Q9C9M6 1-196)
chain: MSAIKITNVAVLHNPAPFVSPFQFEISYECLNSLKDDLEWKLIYVGSAEDETYDQLLESVLVGPVNVGNYRFVFQADPPDPSKIQEEDIIGVTVLLLTCSYMGQEFLRVGYYVNNDYEDEQLKEEPPTKVLIDKVQRNILSDKPRVTKFPIDFHPEEEQTAATAAPPEQSDEQQPNVNGEAQVLPDQSVEPKPEES
B2: ASF1B-9xMyc-BLRP (pASF1B::ASF1B-9xMyc-BLRP complementing line) (protein, UniProt Q9LS09 1-218)
chain: MSSINITNVTVLDNPAPFVNPFQFEISYECLTSLKDDLEWKLIYVGSAEDETYDQVLESVLVGPVNVGNYRFVLQADSPDPLKIREEDIIGVTVLLLTCSYMDQEFIRVGYYVNNDYDDEQLREEPPTKVLIDKVQRNILTDKPRVTKFPINFHPENEQTLGDGPAPTEPFADSVVNGEAPVFLEQPQKLQEIEQFDDSDVNGEAIALLDQPQNLQET

Target: T1, HIRA-3xHA (pHIRA::HIRA-3xHA complementing line) (Arabidopsis thaliana)
Test: co-IP; 2 g young inflorescence tissue; anti-HA antibodies coupled to magnetic beads (HIRA-3xHA line); western blot with HRP anti-Myc tag antibody

Binder | binding
B1 | binds
B2 | binds

From article PMC9666630
